Data as given in PubChem BioAssay AID1259290 (Sanger Institute, 2017).
The whole screen tested 794 reagents; this is a random part of them. In the full data, 9 (1.1%) got an active call. 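Calls rest on knock-down alone, not drug synergy; synergy above 0.15 was grouped apart and does not affect calls.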 Further read-outs or replicates are left out here. No sequences are given here. The record does not give: the amount of reagent, the time to read-out.

Screen: 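Identify kinases needed for colorectal cancer cell survival, with or without anchor drugs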 (primary screen)
Cells: human SNUC1 colorectal cancer cells
Reagents: siRNA pool against human genes
Treatment: anchor drugs BYL719 1 µM, cetuximab 5 µg/ml or trametinib 10 nM, or DMSO vehicle alone
Read-out: 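Viability averaged over replicates and scaled to non-targeting siRNA, robust z-score with no drug, and synergy scores by drug for BYL719, cetuximab and trametinib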
Direction: viability z-score, siRNA alone: higher = more viable cells; low values mean essential gene
Rule for the call: 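a knock-down without drug scoring a robust z under -3 counts as essential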
Calls: active = essential: knock-down alone cut viability (z below -3); inactive = no clear viability loss with knock-down alone

target | viability z-score, siRNA alone | call
ADGRL2 | -0.73 | inactive
MAP2K7 | 0.154 | inactive
CDKN2C | -0.813 | inactive
HK2 | 0.936 | inactive
PRKCB | 0.244 | inactive
MGA | -2.2 | inactive
BLK | -0.367 | inactive
RPS6KA6 | -0.69 | inactive
STK32C | 0.936 | inactive
WHR1 | 0.457 | inactive
EEF2K | -1.5 | inactive
MAPK4 | 0.936 | inactive
MARK2 | -0.481 | inactive
STK32B | 0.886 | inactive
SPEG | 0.936 | inactive
NEK7 | -0.0639 | inactive
TESK2 | -1.02 | inactive
ABL1 | -0.222 | inactive

2 consecutive records already listed:
target | viability z-score, siRNA alone | call
MAPK4 | 0.936 | inactive
MARK2 | -0.481 | inactive

More entries follow.
target | viability z-score, siRNA alone | call
PLK3 | 0.0893 | inactive
MAP3K1 | -0.864 | inactive
PDPK1 | 0.767 | inactive
GRK3 | 0.936 | inactive
PTK7 | -1.8 | inactive
MAP3K4 | 0.936 | inactive
MKNK1 | -0.0954 | inactive
SHPK | 0.183 | inactive
STAG2 | -0.011 | inactive
IP6K3 | 0.824 | inactive
TNK2 | 0.936 | inactive
IRAK1 | 0.76 | inactive
CDK4 | -1.1 | inactive
FBXW7 | 0.85 | inactive
ALPK3 | -1.12 | inactive
NTRK1 | 0.936 | inactive
GRK4 | 0.161 | inactive
STK26 | 0.936 | inactive
PDXK | -0.106 | inactive
FN1 | 0.55 | inactive
PFKP | 0.936 | inactive
RIPK4 | 0.71 | inactive
MASTL | 0.0488 | inactive
MAP2K1 | -1.27 | inactive
PRKAR2A | 0.399 | inactive
RPS6KA5 | -0.403 | inactive
ATP23 | 0.936 | inactive
STK24 | 0.936 | inactive
CAMK4 | 0.716 | inactive
MINK1 | -2.79 | inactive
MAP4K1 | -1.83 | inactive
CDK3 | 0.587 | inactive
